Several values for one entry are separate records, joined by “and”; a condition that tells them apart may be missing. Equal values may be shown once. Inconclusive means that the source gave no clear call. Such entries were picked first, then a sample of the others. For some of these results: Where the call is inconclusive, the potency comes from a doubtful curve fit. More than one record can exist for a structure, and the calls need not agree. Activity calls are given as the source filed them. Rule for the calls: active = hit-call score of the fitted dose curve at least 0.9, where 1 is the maximum; inconclusive = response in the unintended direction; inactive = score below 0.9.
What was measured:
[1] = molecular target: Oxysterols receptor LXR-beta (Homo sapiens) (UniProt P55055); test: ATG_LXRb_TRANS: Attagene TRANS-FACTORIAL HepG2 Assay for human Liver X Receptor beta (LXRb) (AID 2282981); settings: HepG2 Attagene TRANS GAL4-LXRb reporter, mRNA
In short: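 In this TRANS format, exogenous chimeric NR-Gal4 protein activity, not endogenous factors, drives reporter expression in transfected human HepG2 cells. Exposure lasted 24 h; reporter mRNA was read by fluorescent capillary electrophoresis.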

Chains of the proteins cited; added tags and fusions are not shown. Lines headed by an entry give the natural chain unless they say otherwise; changes in a name come on top.
UniProt P55055, whole entry, looked up: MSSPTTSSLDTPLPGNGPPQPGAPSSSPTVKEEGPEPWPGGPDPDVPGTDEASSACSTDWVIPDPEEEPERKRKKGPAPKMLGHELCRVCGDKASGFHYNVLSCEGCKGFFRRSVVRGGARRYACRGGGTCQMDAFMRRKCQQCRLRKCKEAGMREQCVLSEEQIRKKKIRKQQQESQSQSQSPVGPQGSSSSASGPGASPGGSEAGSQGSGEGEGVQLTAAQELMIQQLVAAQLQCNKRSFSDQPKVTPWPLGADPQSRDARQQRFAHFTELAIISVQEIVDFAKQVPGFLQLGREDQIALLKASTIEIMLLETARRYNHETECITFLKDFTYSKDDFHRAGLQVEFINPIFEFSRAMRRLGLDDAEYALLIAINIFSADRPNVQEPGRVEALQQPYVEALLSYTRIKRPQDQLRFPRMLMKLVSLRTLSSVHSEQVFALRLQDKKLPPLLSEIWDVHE
UniProt Q03181: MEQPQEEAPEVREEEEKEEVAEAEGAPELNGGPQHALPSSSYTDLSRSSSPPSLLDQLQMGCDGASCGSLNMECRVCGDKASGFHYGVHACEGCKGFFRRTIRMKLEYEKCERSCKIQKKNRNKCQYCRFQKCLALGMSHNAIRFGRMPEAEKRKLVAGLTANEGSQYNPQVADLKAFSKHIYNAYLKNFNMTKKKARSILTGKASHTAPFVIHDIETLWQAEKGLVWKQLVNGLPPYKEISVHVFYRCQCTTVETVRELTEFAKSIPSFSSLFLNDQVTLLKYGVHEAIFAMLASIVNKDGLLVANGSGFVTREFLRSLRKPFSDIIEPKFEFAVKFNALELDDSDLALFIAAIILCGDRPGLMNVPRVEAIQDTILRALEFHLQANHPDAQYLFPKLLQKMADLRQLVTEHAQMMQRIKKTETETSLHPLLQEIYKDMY
UniProt P19793: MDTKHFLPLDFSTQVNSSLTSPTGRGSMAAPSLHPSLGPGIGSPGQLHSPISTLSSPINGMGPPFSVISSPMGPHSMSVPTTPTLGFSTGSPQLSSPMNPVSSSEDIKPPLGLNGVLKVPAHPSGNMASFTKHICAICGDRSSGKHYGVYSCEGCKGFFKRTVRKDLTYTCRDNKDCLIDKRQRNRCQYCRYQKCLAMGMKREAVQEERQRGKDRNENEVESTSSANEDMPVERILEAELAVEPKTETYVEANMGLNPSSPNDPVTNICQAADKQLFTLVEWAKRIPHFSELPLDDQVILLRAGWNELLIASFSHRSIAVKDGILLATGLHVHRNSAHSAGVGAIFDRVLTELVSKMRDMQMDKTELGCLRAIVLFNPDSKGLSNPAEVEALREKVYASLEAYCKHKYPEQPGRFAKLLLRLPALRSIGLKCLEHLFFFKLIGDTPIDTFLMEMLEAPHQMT
UniProt Q96RI1: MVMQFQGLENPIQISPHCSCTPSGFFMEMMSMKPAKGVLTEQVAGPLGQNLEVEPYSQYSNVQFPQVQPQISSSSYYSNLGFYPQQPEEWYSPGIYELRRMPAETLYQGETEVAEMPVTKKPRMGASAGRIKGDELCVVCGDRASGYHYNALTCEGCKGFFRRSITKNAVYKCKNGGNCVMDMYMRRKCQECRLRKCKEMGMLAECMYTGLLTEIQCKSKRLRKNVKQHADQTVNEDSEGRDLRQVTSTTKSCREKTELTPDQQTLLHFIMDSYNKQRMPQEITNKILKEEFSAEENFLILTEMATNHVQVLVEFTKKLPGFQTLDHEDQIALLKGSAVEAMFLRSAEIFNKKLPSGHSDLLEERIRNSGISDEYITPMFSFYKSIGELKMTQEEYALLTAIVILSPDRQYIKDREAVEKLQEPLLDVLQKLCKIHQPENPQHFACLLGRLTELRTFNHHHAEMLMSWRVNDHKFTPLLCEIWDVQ
UniProt P11473: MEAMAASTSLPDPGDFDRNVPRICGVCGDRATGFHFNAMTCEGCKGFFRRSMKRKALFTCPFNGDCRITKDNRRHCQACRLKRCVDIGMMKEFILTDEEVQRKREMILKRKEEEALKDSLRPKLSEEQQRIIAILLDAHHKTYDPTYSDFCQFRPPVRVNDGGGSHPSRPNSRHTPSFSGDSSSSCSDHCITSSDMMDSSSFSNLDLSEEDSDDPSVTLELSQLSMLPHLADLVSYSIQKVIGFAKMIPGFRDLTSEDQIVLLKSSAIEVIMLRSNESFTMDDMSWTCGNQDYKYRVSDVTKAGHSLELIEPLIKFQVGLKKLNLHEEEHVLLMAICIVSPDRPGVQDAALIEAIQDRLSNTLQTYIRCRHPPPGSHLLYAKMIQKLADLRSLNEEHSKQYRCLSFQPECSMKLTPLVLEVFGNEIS
UniProt P04637, whole entry, looked up: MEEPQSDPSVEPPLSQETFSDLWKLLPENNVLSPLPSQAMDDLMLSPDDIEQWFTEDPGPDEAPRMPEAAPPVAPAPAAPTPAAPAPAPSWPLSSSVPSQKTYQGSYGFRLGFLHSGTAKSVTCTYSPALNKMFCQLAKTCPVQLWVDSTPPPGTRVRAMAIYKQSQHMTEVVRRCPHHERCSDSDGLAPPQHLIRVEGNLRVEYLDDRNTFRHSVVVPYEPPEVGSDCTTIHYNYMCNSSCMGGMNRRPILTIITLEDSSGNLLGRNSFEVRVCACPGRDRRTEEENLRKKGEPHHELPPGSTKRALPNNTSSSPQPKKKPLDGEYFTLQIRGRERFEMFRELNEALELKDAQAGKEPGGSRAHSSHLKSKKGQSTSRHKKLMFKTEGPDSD
UniProt P04406: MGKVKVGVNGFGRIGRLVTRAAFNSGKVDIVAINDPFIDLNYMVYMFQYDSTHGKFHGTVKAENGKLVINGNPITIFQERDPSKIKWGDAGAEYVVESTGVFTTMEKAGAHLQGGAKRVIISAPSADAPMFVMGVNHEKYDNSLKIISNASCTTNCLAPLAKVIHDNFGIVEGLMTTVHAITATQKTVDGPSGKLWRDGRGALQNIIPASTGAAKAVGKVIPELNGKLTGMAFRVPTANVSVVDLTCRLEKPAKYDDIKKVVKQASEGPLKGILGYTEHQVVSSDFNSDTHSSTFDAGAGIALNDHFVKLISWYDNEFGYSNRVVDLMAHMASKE
UniProt P04150: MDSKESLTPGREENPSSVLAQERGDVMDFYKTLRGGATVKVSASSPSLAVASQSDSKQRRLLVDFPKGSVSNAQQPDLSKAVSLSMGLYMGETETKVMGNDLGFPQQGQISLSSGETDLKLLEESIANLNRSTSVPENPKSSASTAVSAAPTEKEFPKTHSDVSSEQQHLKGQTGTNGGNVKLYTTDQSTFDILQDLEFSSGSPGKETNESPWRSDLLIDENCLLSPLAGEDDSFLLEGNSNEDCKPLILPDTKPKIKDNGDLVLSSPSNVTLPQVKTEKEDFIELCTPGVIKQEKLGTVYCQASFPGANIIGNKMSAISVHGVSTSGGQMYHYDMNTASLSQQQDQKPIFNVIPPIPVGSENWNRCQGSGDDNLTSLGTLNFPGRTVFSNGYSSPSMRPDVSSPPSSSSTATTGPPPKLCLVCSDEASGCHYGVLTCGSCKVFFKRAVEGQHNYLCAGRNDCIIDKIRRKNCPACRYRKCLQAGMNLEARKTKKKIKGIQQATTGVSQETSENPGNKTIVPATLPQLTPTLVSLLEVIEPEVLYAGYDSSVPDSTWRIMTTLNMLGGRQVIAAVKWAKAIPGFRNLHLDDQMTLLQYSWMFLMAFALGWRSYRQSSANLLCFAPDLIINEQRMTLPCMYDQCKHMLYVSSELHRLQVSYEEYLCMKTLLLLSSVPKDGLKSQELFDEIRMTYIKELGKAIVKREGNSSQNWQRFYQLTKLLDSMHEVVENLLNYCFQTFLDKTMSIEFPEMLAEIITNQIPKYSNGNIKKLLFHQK
UniProt P62508: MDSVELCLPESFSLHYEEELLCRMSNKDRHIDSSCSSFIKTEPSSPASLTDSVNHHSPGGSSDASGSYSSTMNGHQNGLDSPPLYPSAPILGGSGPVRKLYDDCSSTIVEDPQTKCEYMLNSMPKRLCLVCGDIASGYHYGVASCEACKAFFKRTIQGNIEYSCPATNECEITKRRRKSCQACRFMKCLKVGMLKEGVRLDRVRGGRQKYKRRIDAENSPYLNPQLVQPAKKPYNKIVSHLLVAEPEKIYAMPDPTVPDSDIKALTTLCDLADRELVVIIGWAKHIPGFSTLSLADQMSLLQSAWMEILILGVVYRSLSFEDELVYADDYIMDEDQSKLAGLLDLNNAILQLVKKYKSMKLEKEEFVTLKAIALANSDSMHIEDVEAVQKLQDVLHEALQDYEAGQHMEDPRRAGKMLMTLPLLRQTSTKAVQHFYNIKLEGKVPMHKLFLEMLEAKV
UniProt P37231: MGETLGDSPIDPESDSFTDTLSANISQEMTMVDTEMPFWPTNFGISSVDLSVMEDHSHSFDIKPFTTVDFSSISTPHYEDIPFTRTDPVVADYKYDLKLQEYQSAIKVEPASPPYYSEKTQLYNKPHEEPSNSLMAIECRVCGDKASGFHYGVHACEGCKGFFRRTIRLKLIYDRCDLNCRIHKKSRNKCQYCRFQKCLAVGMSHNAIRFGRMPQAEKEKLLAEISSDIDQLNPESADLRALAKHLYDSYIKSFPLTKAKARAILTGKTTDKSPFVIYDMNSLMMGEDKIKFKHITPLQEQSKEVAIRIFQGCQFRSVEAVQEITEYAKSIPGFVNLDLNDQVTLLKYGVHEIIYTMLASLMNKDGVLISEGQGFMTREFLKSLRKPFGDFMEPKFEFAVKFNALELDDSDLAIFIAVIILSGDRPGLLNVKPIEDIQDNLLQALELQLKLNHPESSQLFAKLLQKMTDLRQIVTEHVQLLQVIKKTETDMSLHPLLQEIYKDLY

[2] = molecular target: human Peroxisome Proliferator-activated Receptor delta (PPARd), PPARD (gene 5467) (UniProt Q03181); test: ATG_PPARd_TRANS: Attagene TRANS-FACTORIAL HepG2 Assay for human Peroxisome Proliferator-activated Receptor delta (PPARd) (AID 2283002)
In short: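 Measured quantity: GAL4-UAS reporter transcript induction in HepG2 after 24 h chemical dosing, with NR-Gal4 chimeras supplied by transient transfection. Detection by RT-PCR and capillary electrophoresis; upward fit against DMSO.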

[3] = molecular target: Retinoic acid receptor RXR-alpha (Homo sapiens) (UniProt P19793); test: OT_NURR1_NURR1RXRa_0480: Odyssey Thera (OT) 8-hour HEK293T Protein Complementation Assay for Nurr1/retinoid X receptor (RXR) (AID 2283385)
In short: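 HEK293T cells expressing Nurr1 and RXRα fused to reporter fragments (protein-fragment complementation); fluorescence measured 8 h after dosing. Gain of signal fitted relative to DMSO.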

[4] = molecular target: Retinoic acid receptor RXR-alpha (Homo sapiens) (UniProt P19793); test: OT_NURR1_NURR1RXRa_1440: Odyssey Thera (OT) 24-hour HEK293T Protein Complementation Assay for Nurr1/retinoid X receptor (RXR) (AID 2283386)
In short: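 HEK293T protein-fragment complementation of Nurr1 and RXRα fused to reporter fragments; compounds 24 h. Fluorescence gain from reconstituted reporter fitted versus DMSO.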

[5] = ACEA_ER_AUC_viability: ACEA Biosciences xCELLigence Real-Time Cell Analysis on Estrogen Receptor Agonism for Viability (AID 2283782);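 note: continuous compound exposure with impedance area under curve over 80 h; hit means loss of impedance signal meaning reduced cell growth or viability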
In short: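 T-47D human breast cells in phenol red-free RPMI1640 with 10% charcoal-stripped FBS were dosed with an 8-point 1:4 dilution series from 100 uM top final concentration, in duplicate. Impedance-based growth was followed for 80 h; AUC analysed versus DMSO.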

[6] = molecular target: Bile acid receptor (Homo sapiens) (UniProt Q96RI1); test: ATG_FXR_TRANS: Attagene TRANS-FACTORIAL HepG2 Assay for Farnesoid X Receptor (FXR) (AID 2282979); settings: HepG2 Attagene TRANS FXR-GAL4 reporter transcription;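 note: hits raise reporter mRNA above DMSO so AC50 marks FXR activation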
In short: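 Transient transfection of HepG2 with multiplexed GAL4-UAS reporter units; exogenous FXR-GAL4 chimera. Dose 24 h → TriZol RNA → oligo(dT) RT → PCR, 6-FAM primer extension, HpaI cut → CE. Gain vs DMSO.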

[7] = ATG_M_06_TRANS: Attagene TRANS-FACTORIAL HepG2 Assay for M06 Transcription Factor (Internal Marker) (AID 2282983); settings: HepG2 Attagene TRANS M06 internal marker reporter;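 for AC50: potency for rise in reporter mRNA above DMSO baseline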
In short: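 Transfect HepG2 with MRTUs → dose compounds 24 h → isolate RNA, oligo(dT) RT → PCR with reporter primers → 6-FAM primer extension → HpaI digest → CE fragment analysis. Positive direction vs DMSO.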

[8] = molecular target: human Vitamin D Receptor (VDR), VDR (gene 7421) (UniProt P11473); test: ATG_VDR_TRANS: Attagene TRANS-FACTORIAL HepG2 Assay for human Vitamin D Receptor (VDR) (AID 2283022)
In short: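 Steps: transfect HepG2 with GAL4-UAS-driven reporter constructs; dose compounds 24 h; isolate RNA, reverse-transcribe, PCR-amplify with 6-FAM-labelled primer extension and HpaI digestion; quantify fragments by capillary electrophoresis relative to DMSO.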

[9] = molecular target: Cellular tumor antigen p53 (Homo sapiens) (UniProt P04637); test: TOX21_p53_BLA_p2_ratio: Tox21 HCT-116 p53 Agonism Beta-lactamase Assay, Ratio, Phase 2 (AID 2283592)
In short: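 HCT116 p53-bla; 4000 cells/well; 5 h pre-incubation; cpd in DMSO, 217-fold dilution; 16 h 37C/5% CO2; CCF4-AM 2 h RT; Ex 405, Em 460/530 ratio; DMSO = baseline; positive fitting direction.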

[10] = TOX21_p53_BLA_p5_viability: Viability Assessment in the Tox21 HCT-116 p53 Agonism Beta-lactamase Assay, Phase 5 (AID 2283600)
In short: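 4000 cells/well; 5 h pre-incubation; DMSO compounds pin-transferred, 217-fold dilution; 16 h, 37C/5% CO2; CCF4-AM 2 h RT; CellTiter-Glo 30 min RT; luminescence.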

[11] = read-out: HMG-CoA synthase (HMGCS2), HMGCS2 (gene 3158); test: CLD_HMGCS2_24hr: CellzDirect (CLD) Gene Expression Assay for HMG-CoA synthase (HMGCS2) at 24 hours (AID 2283691)
In short: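 Primary human hepatocytes from two donor preparations, dosed daily with fresh solutions; vehicle 0.2% DMSO, 24 h harvest. HMGCS2 mRNA quantified by qNPA with S1 nuclease digestion and chemiluminescence; gain fitted versus DMSO, cytotoxicity annotated by morphology.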

[12] = read-out: Glyceraldehyde-3-phosphate dehydrogenase (Homo sapiens) (UniProt P04406); test: CLD_GAPDH_24hr: CellzDirect (CLD) Gene Expression Assay for Baseline Control (Glyceraldehyde 3-phosphate dehydrogenase) at 24 hours (AID 2283692)
In short: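 Primary human hepatocytes (two donor preparations) dosed daily for two days, 0.2% DMSO vehicle; GAPDH mRNA measured at 24 h by qNPA chemiluminescence as a background control, gain-of-signal fitted against DMSO.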

[13] = read-out: HMG-CoA synthase (HMGCS2), HMGCS2 (gene 3158); test: CLD_HMGCS2_48hr: CellzDirect (CLD) Gene Expression Assay for HMG-CoA synthase (HMGCS2) at 48 hours (AID 2283711)
In short: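 Primary human hepatocytes from two donors dosed daily for two days, 0.2% DMSO vehicle. HMGCS2 mRNA measured 48 h after dosing by quantitative nuclease protection assay with chemiluminescent read-out; induction fitted relative to DMSO, cytotoxicity flagged by microscopy.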

[14] = CCTE_Harrill_HTTr_CellCount_MCF7: CCTE's Cell Proliferation Assessment for the High-Throughput Transcriptomics (HTTr) Platform, Harrill Lab (AID 2284012);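 note: cells exposed to compound for six hours; intended direction is loss of nuclei count meaning fewer cells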
In short: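 MCF7 cells exposed 6 hours to an eight-point dilution series; Hoechst-stained nuclei counted by high-content imaging. Bidirectional curve fitting against DMSO baseline.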

[15] = molecular target: Glucocorticoid receptor (Homo sapiens) (UniProt P04150); test: ATG_GR_TRANS: Attagene TRANS-FACTORIAL HepG2 Assay for human Glucocorticoid Receptor (GR) (AID 2282978); settings: HepG2 Attagene TRANS GR reporter, mRNA transcription;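 note: activators score as hits since higher reporter transcript over DMSO is fitted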
In short: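 Transient MRTU transfection of HepG2 (GAL4-UAS reporters, exogenous NR-GAL4 chimeras), 24 h dosing. Readout: reporter transcript via RT-PCR + capillary electrophoresis fluorescence. Positive direction vs DMSO baseline.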

[16] = molecular target: Cellular tumor antigen p53 (Homo sapiens) (UniProt P04637); test: TOX21_p53_BLA_p5_ratio: Tox21 HCT-116 p53 Agonism Beta-lactamase Assay, Ratio, Phase 5 (AID 2283599)
In short: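 HCT-116 cells carrying a p53-inducible beta-lactamase reporter were seeded at 4000 cells/well and dosed after 5 h with compound in DMSO (217-fold dilution). After 16 h at 37C, CCF4-AM substrate was added for 2 h, and the 460/530 nm emission ratio was scored as gain-of-signal versus DMSO.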

[17] = molecular target: Cellular tumor antigen p53 (Homo sapiens) (UniProt P04637); test: TOX21_p53_BLA_p4_ratio: Tox21 HCT-116 p53 Agonism Beta-lactamase Assay, Ratio, Phase 4 (AID 2283601)
In short: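 HCT116 cells carrying an inducible beta-lactamase reporter were plated at 4000 cells/well, rested 5 h, then exposed to compounds in DMSO (217-fold dilution) for 16 h at 37C. CCF4-AM substrate was loaded 2 h at room temperature; 460/530 nm emission ratio scored gain-of-signal versus DMSO.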

[18] = molecular target: Estrogen-related receptor gamma (Homo sapiens) (UniProt P62508); test: ATG_ERRg_TRANS: Attagene TRANS-FACTORIAL HepG2 Assay for human Estrogen-Related Receptor gamma (ERRg) (AID 2282977); settings: HepG2 Attagene TRANS reporter, ERRg transactivation;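 note: hits increase reporter signal over DMSO so potencies reflect activators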
In short: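 HepG2 cells transiently transfected with multiplexed GAL4-UAS reporter units driven by chimeric NR-Gal4 proteins; 24 h exposure. Reporter mRNA quantified by RT-PCR, fluorescent labelling, HpaI digestion and capillary electrophoresis; gain of signal vs DMSO.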

[19] = molecular target: Peroxisome proliferator-activated receptor gamma (Homo sapiens) (UniProt P37231); test: ATG_PPARg_TRANS: Attagene TRANS-FACTORIAL HepG2 Assay for human Peroxisome Proliferator-activated Receptor-gamma (PPARg) (AID 2283007)
In short: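 Read-out: reporter mRNA induction, detected by fluorescence after RT-PCR and capillary electrophoresis. Transiently transfected human HepG2 liver cells carrying a chimeric NR-Gal4 construct were dosed for 24 h; activity was fitted upward relative to DMSO.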

Measured: AC50

CCOP(=S)(OCC)SCn1c(=O)oc2cc(Cl)ccc21
inactive: [6] | [9] | [13]
inconclusive: [7] 0.0129 µM | [8] 0.0129 µM | [10] 48.9 µM | [11] 5.71 µM | [12] 0.000108 µM

N#CN
inactive: [1] | [7] | [12]
inconclusive: [8] 50 µM | [4] 50 µM | [11] 4.54 µM | [13] 0.0422 µM | [14] 0.0483 µM

CC1(C)[C@H](/C=C2\CCSC2=O)[C@@H]1C(=O)OCc1coc(Cc2ccccc2)c1
inconclusive: [15] 5.68 µM | [1] 2 µM
inactive: [16]
active: [17] 69.3 µM

CN(N=O)c1ccc([N+](=O)[O-])cc1
inactive: [6]
inconclusive: [15] 0.119 µM

CCOP(=S)(S)OCC
inactive: [19] | [9] | [10]
inconclusive: [18] 104 µM | [15] 104 µM | [8] 104 µM | [16] 48.2 µM | [5] 12.1 µM

CCOP(=O)(OCC)Oc1cc(C)nc(C(C)C)n1
inactive: [4] | [11] | [12]
inconclusive: [18] 50 µM | [15] 50 µM | [3] 50.5 µM | [17] 46.3 µM | [13] 0.00188 µM

CCS(=O)(=O)c1cccnc1S(=O)(=O)NC(=O)Nc1nc(OC)cc(OC)n1
inactive: [18] | [8] | [11]
inconclusive: [8] 50 µM | [12] 20 µM | [13] 0.0004 µM

CCCCOCN(C(=O)CCl)c1c(CC)cccc1CC
inconclusive: [7] 2.38 µM | [2] 2.38 µM | [8] 0.00567 µM | [16] 0.0013 µM | [11] 9.46 µM | [12] 20 µM | [13] 8.24 µM
inactive: [1] | [3] | [4] | [9]
active: [4] 76.8 µM | [17] 66 µM

CCC(C)c1cc(C(C)(C)C)cc(-n2nc3ccccc3n2)c1O (stereo not drawn)
inconclusive: [18] 50 µM | [15] 50 µM | [2] 50 µM
inactive: [7] | [19] | [8]

Cc1nn(-c2cc(NS(C)(=O)=O)c(Cl)cc2Cl)c(=O)n1C(F)F
inconclusive: [3] 50 µM | [4] 50 µM | [16] 46.1 µM | [11] 2.07 µM | [12] 5.26 µM | [13] 20 µM
active: [19] 28 µM
inactive: [18] | [1] | [4] | [10] | [17]

From PubChem BioAssay (EPA / NIEHS)
